Results of single-concentration screens

Source: ChEMBL document CHEMBL3988442, “University of Dundee, Small-Polar-MMV Screening Library” (2021).

The filed quantity is “Percent Effect” (%). The record does not define 0% and 100%; most values in the screen are far below 50% and negative numbers occur (in some assays of this library far below -100). The compounds are a random part of those screened.

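Whole-parasite assay of Trypanosoma brucei over 72 hours; the read-out is not stated. Compounds at 30 µM. Higher reads as stronger inhibition (inferred: compounds with an IC50 in retests scored well above the rest). Values scatter widely below zero; nearly all retest evidence comes from the higher of the two concentrations used. About 64,000 compounds were tested under these conditions; 1.5% (about 940) showed 50% or more at least once.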

compound | Percent Effect
Cc1csc2c(N3CCNC(C(=O)N4CCCC4)C3)ncnc12 (stereo unspecified) | 24.45
CCOc1cc(=O)n2c(c1C(=O)OCc1ccc(F)cc1)CCCC2 | -52
COc1ncccc1C(=O)NC1(c2cccc(F)c2)CCOCC1 | -27.64
Cn1nc(Cn2cccn2)c2c1CN(Cc1ccsc1)C2.O=C(O)C(F)(F)F | 0.5716
N#CCC(=O)NCc1nnc2n1CCN(Cc1ccco1)C2 | -51.08
Cc1c(Cl)c(C(=O)NC(C)CN2CCOCC2)nn1C (stereo unspecified) | -39.1
CCc1ocnc1C(=O)N1CCN(c2ccc3ccccc3c2)CC1 | -53.28
CCC[C@H]1CN(Cc2cscn2)C[C@@H]1NC(=O)C1(COC)CCC1 | -39.28
CC(CCc1ccccc1)NC(=O)Nc1cnn(CC(N)=O)c1 (stereo unspecified) | 12.83
OCC(CO)Nc1ccc2c(Cl)ccc(Cl)c2n1 | 28.96
Cc1cc(C)n(CC2CN(CC(=O)NCc3ccccn3)CCO2)n1 (stereo unspecified) | -2.37
Cc1ccc(NC2CCN(C(=O)CCc3ccncc3)CC2)nn1 | 5.448
CCCc1nc(Cn2c(=O)n(C)c3ccccc32)no1 | -12.75
CCCOc1ccc(OCCN2CCOCS2(=O)=O)cc1 | 2.709
CN1C(=O)CC(C(=O)O)C12CCN(Cc1cc(F)ccc1Cl)CC2 (stereo unspecified) | -103.6
CN(C)c1nc2n(c(=O)n1)CCN2C(=O)Nc1ccc(Cl)cc1 | -20.89
O=C(Nc1ncnc2c1CCC2)c1ccc2c(c1)OCO2 | -21.65
O=C(c1cc[nH]n1)N1CCN(C(c2ccccc2)C(F)(F)F)CC1 (stereo unspecified) | -16.63
Cc1nccn1CC1CCCN1CCCc1nc(-c2cccs2)no1 (stereo unspecified) | -28.48
COCc1noc(-c2ccc(N3CCC[C@H]3CO)nc2)n1 | -19.53
CCc1cnc(C)nc1NC(C)C(=O)Nc1cc(F)ccc1C (stereo unspecified) | -9.562
COCc1ccccc1C(=O)NCC(O)c1ccccc1F (stereo unspecified) | -26.74
Cc1cc(C)nc(N2CCN(C(=O)c3ccc(C4CCCO4)s3)CC2)n1 (stereo unspecified) | -4.147
O=C(O)C(F)(F)F.[H][C@@]12OCCN(Cc3ccoc3)[C@@]1([H])CC[C@H]2OCC1CCOCC1 | -65.09
Cc1ccc(OCC(=O)NC2(C#N)CCSCC2)cc1C | 4.338
CC(C)c1nc(CN2CCN(C(=O)CN3CCOCC3)CC2)no1 | -74.55
COc1ncc(CN2CCC3(CCNC(=O)CC3)CC2)cn1 | -1.438
c1ccc(Oc2nccc3occc23)c(CN2CCCCC2)c1 | -11.5
O=S(=O)(N1CCCC1)N(Cc1ccccc1)CC1CCCO1 (stereo unspecified) | -22.63
COc1ccc(-c2cnc(NC(C)=O)[nH]2)cc1 | -7.389
CN(C)C(=O)C1CN(Cc2c[nH]cn2)CCN(C2CCOCC2)C1 (stereo unspecified) | 15.6
O=C(O)C(F)(F)F.[H][C@]12CC[C@@]3(N=C(C)N(CC4CC4)C3=O)[C@@]1([H])CN(CCOC)C2 | 49.72
Cc1occc(=O)c1OCc1noc(C(=O)NCC2CC2)n1 | -39.22
Cn1c(Cn2cccn2)nnc1C1CCN(Cc2cccnc2N)CC1 | -38.3
CC1CC2(CCN(C(=O)c3csnn3)CC2)c2ccccc21 (stereo unspecified) | -73.34
Cc1cccnc1C(Cc1ccsc1)NC(=O)Cn1cccnc1=O (stereo unspecified) | -15.58
CN1C(=O)Cc2cc(-c3csc(CCN4CCOC4=O)n3)ccc21 | -4.531
COc1ccc(F)c(CNC2CCCc3nc(N(C)C)ncc32)c1 (stereo unspecified) | -5.675
O=C(CSc1ccncc1)N1CCC2(CC1)c1ccccc1CC2O (stereo unspecified) | -21.28
Cn1cnnc1CC1CCN(Cc2c(Cl)cncc2Cl)CC1 | -39.57
O=C(CNC(=O)Nc1c(F)cccc1Oc1ccccc1)NC1CC1 | -31.93
COc1cccc(CNc2cc(CO)ccc2Cl)c1 | -53.68
O=C(O)C(F)(F)F.[H][C@@]12CN(CC)C[C@]1([H])[C@H](OC)CCN2S(=O)(=O)c1ccccc1F | -118.8
O=C(O)C(F)(F)F.[H][C@@]12CN(Cc3cncn3C)C[C@]1([H])OCCN2c1ncccn1 | 3.519
C[C@H](N)C(=O)N1CCC(c2[nH]ncc2-c2ccccc2)CC1 | -35.95
Cc1cnn(CC2CCCN2Cc2nc3ccccc3c(=O)[nH]2)c1 (stereo unspecified) | -1.235
CN(C)C(=O)CCNC(=O)NCc1ccc(Br)cc1Cl | -40.63
O=C1NCC2CN(Cc3ccccc3OCc3ccccn3)CCN12 (stereo unspecified) | 7.536
COc1ccc(C2=CCN(C(=O)C3CC(=O)N(C4CC4)C3)CC2)cc1 (stereo unspecified) | -16.62
COc1ccc(COCC(O)CNC(=O)c2cnc(C)cn2)cc1 (stereo unspecified) | 18.14
O=C(O)C(F)(F)F.O=C(O)C(F)(F)F.O=C(O)C(F)(F)F.[H][C@@]12CN(Cc3nccs3)C[C@H](C(=O)Nc3cccnc3)[C@]1([H])CCO2 | 6.623
O=C(O)C(F)(F)F.[H][C@]12CCC[C@@]1(COCc1cccnc1)CN(C(=O)c1ccn(C)n1)C2 | -39.15
CC(C)n1cc(N2CC(C(=O)N3CCc4ccccc4C3)CC2=O)cn1 (stereo unspecified) | -10.35
O=C(O)C(F)(F)F.[H][C@]12CCN(C(=O)c3cnccn3)C[C@@]1([H])[C@H](CN1CCCC1)OC2 | -5.039
Cc1[nH]ccc1C(=O)NCC1CC(=O)N(CCc2ccccc2)C1 (stereo unspecified) | -23.6
COCCC1(C(=O)O)CCCN(Cc2cc3c(cc2Cl)OCO3)C1 (stereo unspecified) | -15.48
COc1cccc(COc2nc(C(C)C)no2)c1 | -7.025
CCOC(=O)c1coc(N2CCN(C(=O)c3cccc(OC)c3)CC2)n1 | -81.49
Cc1ccc(NC2CCN(C(=O)Cc3cccc(F)c3)CC2)nn1 | 4.185
O=C(NCCn1ccnc1)c1ccn(-c2cccc(F)c2)n1 | -42.61
CCCS(=O)(=O)N1CCc2nc(N3CCOCC3)nc(N(C)C)c2C1 | -66.91
CCN1CC(COC(C)(C)C)Oc2ccncc2S1(=O)=O (stereo unspecified) | -18.68
Cc1cc(C(C)NC(=O)N2CCC(n3cncn3)CC2)c(C)s1 (stereo unspecified) | 25.48
COc1ncccc1C(=O)Nc1cccc(C[S+](C)[O-])c1C (stereo unspecified) | -29.93
O=C(O)C(F)(F)F.[H][C@@]12CN(c3cccnc3)CC[C@]1([H])CN(c1cccc(F)c1)C2 | 31.33
CCC1=NC(SCC(=O)c2ccc(Cl)cc2)c2cc(CC)sc2N1 (stereo unspecified) | -27.02
CCN(C(=O)CN1CCCC1c1cc(C)no1)c1ccccc1C (stereo unspecified) | -20.89
COc1cccc(-c2cc(C(=O)NCCCn3cnnc3)[nH]n2)c1 | 8.242

5 of the entries, repeated:

compound,Percent Effect
CCN(C(=O)CN1CCCC1c1cc(C)no1)c1ccccc1C (stereo unspecified),-20.89
OCC(CO)Nc1ccc2c(Cl)ccc(Cl)c2n1,28.96
Cc1cc(C)n(CC2CN(CC(=O)NCc3ccccn3)CCO2)n1 (stereo unspecified),-2.37
CCCS(=O)(=O)N1CCc2nc(N3CCOCC3)nc(N(C)C)c2C1,-66.91
COc1cccc(-c2cc(C(=O)NCCCn3cnnc3)[nH]n2)c1,8.242